The results in this text go back to paper PMC4161973.

No constants are given. Whether binding was seen depends on the method and setting. Sequences can lack the tags named with a protein.

For test [1], the target named is T1, GST-Kap104 (S. cerevisiae) (UniProt P38217).
T1 sequence: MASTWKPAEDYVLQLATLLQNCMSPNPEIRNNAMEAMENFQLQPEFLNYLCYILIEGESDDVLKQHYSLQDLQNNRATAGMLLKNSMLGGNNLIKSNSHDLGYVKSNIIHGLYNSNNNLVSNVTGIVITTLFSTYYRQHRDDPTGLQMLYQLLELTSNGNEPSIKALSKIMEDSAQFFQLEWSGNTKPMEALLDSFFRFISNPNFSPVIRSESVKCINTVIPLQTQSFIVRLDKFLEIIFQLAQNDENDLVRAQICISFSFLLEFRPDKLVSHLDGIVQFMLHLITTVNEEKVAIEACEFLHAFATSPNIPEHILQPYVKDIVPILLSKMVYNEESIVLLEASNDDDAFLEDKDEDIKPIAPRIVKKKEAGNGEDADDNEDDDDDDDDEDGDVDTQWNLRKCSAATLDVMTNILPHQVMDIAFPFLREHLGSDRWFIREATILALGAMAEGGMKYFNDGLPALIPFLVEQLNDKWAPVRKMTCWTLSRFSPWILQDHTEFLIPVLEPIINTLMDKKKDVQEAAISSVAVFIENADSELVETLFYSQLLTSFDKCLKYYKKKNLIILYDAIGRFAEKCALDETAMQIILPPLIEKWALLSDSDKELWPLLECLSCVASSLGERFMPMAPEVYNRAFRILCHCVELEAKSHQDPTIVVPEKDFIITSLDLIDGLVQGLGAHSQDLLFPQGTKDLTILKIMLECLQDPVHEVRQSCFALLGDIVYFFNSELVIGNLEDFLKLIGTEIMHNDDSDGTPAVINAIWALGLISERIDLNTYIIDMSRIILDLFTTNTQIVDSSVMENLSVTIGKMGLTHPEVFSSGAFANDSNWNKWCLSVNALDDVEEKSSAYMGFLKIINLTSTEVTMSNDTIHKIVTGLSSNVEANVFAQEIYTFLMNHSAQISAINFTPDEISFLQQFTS
Description: pull-down; GST-importins immobilised on Glutathione Sepharose, incubated with purified 3.4 µM Tsr2 or 4 µM Tsr2:eS26 in PBSKMT with competing E. coli lysates for 1 hr at 4°C; Coomassie Blue staining or Western; both purified.

The target in test [2] is T2, GST-tagged Sxm1 (S. cerevisiae) (UniProt Q04175).
T2 sequence: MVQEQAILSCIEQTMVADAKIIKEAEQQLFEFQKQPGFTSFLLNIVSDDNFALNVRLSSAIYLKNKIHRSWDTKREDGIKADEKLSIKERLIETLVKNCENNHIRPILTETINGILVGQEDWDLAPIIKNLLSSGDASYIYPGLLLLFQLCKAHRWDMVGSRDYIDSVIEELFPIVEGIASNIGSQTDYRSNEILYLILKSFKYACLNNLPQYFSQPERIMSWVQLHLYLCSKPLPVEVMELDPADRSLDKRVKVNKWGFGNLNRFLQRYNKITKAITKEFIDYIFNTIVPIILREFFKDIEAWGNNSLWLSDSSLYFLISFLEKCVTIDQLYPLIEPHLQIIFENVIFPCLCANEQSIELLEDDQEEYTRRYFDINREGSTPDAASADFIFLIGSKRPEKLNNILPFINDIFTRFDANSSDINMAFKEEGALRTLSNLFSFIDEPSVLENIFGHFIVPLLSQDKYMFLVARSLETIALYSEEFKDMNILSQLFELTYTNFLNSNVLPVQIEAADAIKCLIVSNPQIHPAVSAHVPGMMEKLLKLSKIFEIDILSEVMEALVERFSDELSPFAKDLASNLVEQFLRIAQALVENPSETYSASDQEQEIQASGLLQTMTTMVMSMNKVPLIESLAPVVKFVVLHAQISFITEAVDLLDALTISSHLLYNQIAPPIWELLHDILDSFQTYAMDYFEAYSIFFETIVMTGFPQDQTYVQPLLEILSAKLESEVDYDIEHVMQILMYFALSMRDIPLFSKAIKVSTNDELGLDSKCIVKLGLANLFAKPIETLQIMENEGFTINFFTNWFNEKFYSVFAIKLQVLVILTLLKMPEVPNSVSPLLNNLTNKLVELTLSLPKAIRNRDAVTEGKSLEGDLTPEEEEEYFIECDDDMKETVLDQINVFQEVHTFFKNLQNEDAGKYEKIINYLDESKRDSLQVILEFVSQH
The description is as above.

B1: Tsr2, purified recombinant (protein, UniProt Q06672 1-205)
chain: MSTQYIDETAFVQAEQGKTNLMFSDEKQQARFELGVSMVIYKWDALDVAVENSWGGPDSAEKRDWITGIVVDLFKNEKVVDAALIEETLLYAMIDEFETNVEDDSALPIAVEVINIYNDCFNLNYNKVEKLYLEWQEKQRTKKSKRVVHIEGDDDEDDEDVEDYDDEDEDEEMDEVVPDLVSSKPEPIVDEDGFELVQPKGRRKH
Turning to B1, the binding result in test [1] and in test [2] was “no binding (tested: 3.4 µM Tsr2)” each time.
